Patent US20200262889A1
These are yes or no findings as the source states them, for the method shown. Binding seen in cells or lysates may run through a third protein. Some entries that bind do so weakly or less than the wild type.

Sequences of proteins named here, by UniProt entry; tags and fusion partners are left off. A change or cut given only in a name is not applied to a line headed by its entry.
UniProt Q80SW1: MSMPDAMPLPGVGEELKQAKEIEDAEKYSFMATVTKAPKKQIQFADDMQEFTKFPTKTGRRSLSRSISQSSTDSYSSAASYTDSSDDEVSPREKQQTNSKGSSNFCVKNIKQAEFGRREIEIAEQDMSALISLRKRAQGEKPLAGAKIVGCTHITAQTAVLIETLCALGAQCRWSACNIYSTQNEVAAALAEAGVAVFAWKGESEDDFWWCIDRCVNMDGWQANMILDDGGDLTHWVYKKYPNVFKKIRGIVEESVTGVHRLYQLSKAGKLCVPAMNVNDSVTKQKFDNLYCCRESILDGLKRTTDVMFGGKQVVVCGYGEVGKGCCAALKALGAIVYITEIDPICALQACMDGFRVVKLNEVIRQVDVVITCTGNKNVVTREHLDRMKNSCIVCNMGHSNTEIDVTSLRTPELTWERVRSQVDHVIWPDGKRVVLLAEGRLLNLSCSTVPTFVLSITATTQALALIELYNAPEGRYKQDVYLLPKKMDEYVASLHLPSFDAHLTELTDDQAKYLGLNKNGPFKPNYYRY

Tests used:
[1] = target: T1, human NaDC-1 (Solute carrier family 13 member 2, Slc13a2), wild type (human) (UniProt Q13183); experiment: coIP from HEK293T cells transfected with NaDC-1, IRBIT and/or SUCNR1, 1 mM succinate 10 min before lysis
T1 sequence (looked up): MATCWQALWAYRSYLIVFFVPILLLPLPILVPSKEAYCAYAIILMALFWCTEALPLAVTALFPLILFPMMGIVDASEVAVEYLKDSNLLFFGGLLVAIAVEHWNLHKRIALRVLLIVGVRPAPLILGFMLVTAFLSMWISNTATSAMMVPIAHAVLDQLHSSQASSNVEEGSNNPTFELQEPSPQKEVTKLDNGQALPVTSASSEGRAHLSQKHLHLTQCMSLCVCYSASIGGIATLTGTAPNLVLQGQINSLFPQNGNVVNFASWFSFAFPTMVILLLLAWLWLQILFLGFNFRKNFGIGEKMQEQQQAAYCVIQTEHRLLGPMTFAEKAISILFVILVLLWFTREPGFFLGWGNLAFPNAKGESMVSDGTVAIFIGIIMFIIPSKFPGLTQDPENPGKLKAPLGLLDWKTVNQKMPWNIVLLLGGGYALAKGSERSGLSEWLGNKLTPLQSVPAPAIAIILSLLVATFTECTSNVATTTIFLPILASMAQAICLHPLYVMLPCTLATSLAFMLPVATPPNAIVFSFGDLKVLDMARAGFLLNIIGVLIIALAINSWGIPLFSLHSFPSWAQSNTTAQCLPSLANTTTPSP

[2] = target: T1, human NaDC-1 (Solute carrier family 13 member 2, Slc13a2), wild type (human); experiment: coIP from HEK293T cells (legend of FIG. 5)

- binding [1]: binds
- binding [2]: binds
Substance: IRBIT (IP3 receptor-binding protein released with IP3; S-adenosylhomocysteine hydrolase-like protein) (from UniProt Q80SW1 2-530)
